Measured data: PubChem BioAssay AID1224827 (NIAID, 2016)
The whole screen tested about 3,800 reagents; shown is a random part of them. About 2,200 of them (57%) were called active. 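Active means a strong reporter change in either direction; calls are per siRNA, not per gene; qiagen siRNAs gave weaker effects.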 Reagents against one gene are numbered here. Further read-outs or replicates are left out here. Reagent sequences are not shown.

Assay: 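Identify regulators of the macrophage TNF-alpha response to bacterial LPS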 (follow-up of hits)
System: RAW264.7 G9 mouse macrophage reporter clone
Knock-down reagent: single siRNA against mouse genes, 100 nM siRNA
Duration: siRNA for 2 days, then LPS about 16 h
Challenge: bacterial lipopolysaccharide (LPS), 10 ng/ml, cells fixed after overnight (about 16 h) stimulation
Measured: 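Imaged nuclear TNF reporter intensity, background removed, scaled per plate and to non-targeting control wells, as z-scores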
Direction: TNF reporter z-score, mean: higher = stronger Tnf promoter reporter signal
Rule for the call: 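Active siRNA: replicate-mean z-score of 2 or more, or -2 or less; no calls for control wells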

TNF reporter z-score, mean, by gene and reagent
Prdm8 (GeneID 77630): #1 6.98 active; #2 -0.527 inactive; #3 -1.92 inactive; #4 1.24 inactive; #5 -1.14 inactive; #6 -2.71 active
Dlx6 (GeneID 13396): #1 4.94 active; #2 3.87 active; #3 -2.35 active
Gpr26 (GeneID 233919): #1 -1.42 inactive; #2 -4.04 active; #3 -4.66 active; #4 -0.173 inactive; #5 -0.114 inactive; #6 -3.41 active
Kmt2a (GeneID 214162): #1 -0.396 inactive; #2 -1.69 inactive; #3 -2.6 active
Nedd4 (GeneID 17999): #1 11.9 active; #2 -3 active; #3 -4.77 active; #4 3.99 active; #5 3.01 active; #6 1.29 inactive
Cox6b2 (GeneID 333182): #1 5.35 active; #2 -5.23 active; #3 -6.33 active; #4 0.407 inactive; #5 0.413 inactive; #6 -3.57 active
Csf2ra (GeneID 12982): #1 -0.72 inactive; #2 -1.06 inactive; #3 -1.59 inactive; #4 2.12 active; #5 -0.749 inactive; #6 -0.614 inactive
Ap2m1 (GeneID 11773): #1 4.32 active; #2 -2.74 active; #3 -3.61 active; #4 5.69 active; #5 -0.501 inactive; #6 -3.48 active
Numbl (GeneID 18223): #1 -2.45 active; #2 -3.09 active; #3 -3.41 active; #4 4.45 active; #5 3.5 active; #6 -2.87 active
Syn2 (GeneID 20965): #1 4.2 active; #2 -2.86 active; #3 -4.81 active; #4 3.1 active; #5 -0.644 inactive; #6 -1.13 inactive
Polr1c (GeneID 20016): #1 -3.51 active; #2 -4.5 active; #3 -4.56 active; #4 4.73 active; #5 1.03 inactive; #6 -0.501 inactive

7 of these entries, set out differently:
{"gene":"Numbl (GeneID 18223)","reagent":3,"TNF reporter z-score, mean":-3.41,"Outcome":"active"}
{"gene":"Numbl (GeneID 18223)","reagent":4,"TNF reporter z-score, mean":4.45,"Outcome":"active"}
{"gene":"Numbl (GeneID 18223)","reagent":5,"TNF reporter z-score, mean":3.5,"Outcome":"active"}
{"gene":"Numbl (GeneID 18223)","reagent":6,"TNF reporter z-score, mean":-2.87,"Outcome":"active"}
{"gene":"Syn2 (GeneID 20965)","reagent":1,"TNF reporter z-score, mean":4.2,"Outcome":"active"}
{"gene":"Syn2 (GeneID 20965)","reagent":2,"TNF reporter z-score, mean":-2.86,"Outcome":"active"}
{"gene":"Syn2 (GeneID 20965)","reagent":3,"TNF reporter z-score, mean":-4.81,"Outcome":"active"}
